# Screening data, single-dose tests

Mtb cholesterol medium: 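Phenotypic screen: M. tuberculosis growth, cholesterol and DPPC medium, 4 days; the read-out is not stated. Tested at 50 µM. Direction is inferred from retests: higher values go with more growth inhibition. Of about 69,000 compounds tested this way, about 370 (0.54%) reached 50% or more in at least one test.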
Mtb glucose medium: 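Whole-cell growth test on Mycobacterium tuberculosis, read after 3 days in glucose-containing 7H9 medium; the read-out is not stated. Concentration: 50 µM. Higher reads as more growth inhibition (inferred: compounds with an IC50 in retests scored well above the rest). Of about 69,000 compounds tested this way, about 760 (1.1%) reached 50% or more in at least one test.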

The filed quantity is “Percent Effect” (%).
The controls that fix the scale are not given in the record; negative values are as filed.
This is an unselected part of the compounds tested.
Two or more numbers in one place are separate tests of the same structure; such repeats can differ widely.

| # | compound | Mtb cholesterol medium | Mtb glucose medium |
|---|---|---|---|
| 1 | `O=C(O)C1(Oc2cccc(F)c2)CCN(C2CCOCC2)CC1` | -6.253% | -20.36% |
| 2 | `NC(=O)c1ccc(NC(=O)CCN2CCCC(N3CCCC3)C2)cc1` (centres undefined) | -8.747% and 3.823% | 17.26% |
| 3 | `O=c1[nH]c2nc(N3CCCC3)ncc2c(=O)n1-c1cccc(F)c1` | -18.86% | 2.221% |
| 4 | `CCN1CCC(CNc2nccc(C)n2)(N(C)C)CC1` | 7.195% and -2.713% | 20.89% |
| 5 | `Cc1ccc2nc(C(=O)N3CCNC(=O)C3c3cccc(F)c3)cn2c1` (centres undefined) | -0.4605% | 6.23% |
| 6 | `Cc1cc(C)c(CNC(=O)N2CCOC(c3ccccc3)C2)c(=O)[nH]1` (centres undefined) | 2.662% | 18.05% |
| 7 | `Cc1ccnn1CCNC(=O)C1CCN(S(=O)(=O)c2ccc(F)cc2)C1` (centres undefined) | -13.48% | -82.19% |
| 8 | `COc1nc2c(cc1C(=O)NC(C)Cc1cnccn1)CCC2` (centres undefined) | -9.747% | 12.24% |
| 9 | `Cc1csc(Nc2cc(C3CN(C(C)C)C3)nc(C)n2)n1` | 13.29% | 15.24% |
| 10 | `CC(C)N(C)Cc1nnc2n1CCN(Cc1ccncc1)CC2.O=C(O)C(F)(F)F.O=C(O)C(F)(F)F.O=C(O)C(F)(F)F` | -6.015% | -10.46% |
| 11 | `O=C(O)C(F)(F)F.O=C(O)C(F)(F)F.[H][C@@]12CCCO[C@]1([H])[C@H](Nc1ccccn1)CN(Cc1cc(C)on1)C2` | -6.744% | 1.334% |
| 12 | `Cc1nc(N2CCC(C(O)c3nccn3C)CC2)c2c(C)noc2n1` (centres undefined) | -18.68% | -43.52% |
| 13 | `Cc1ccc(C)c2c(O)cc(CNCC(=O)N3CCCC3)nc12` | -22.92% | -10.99% and -18.05% |
| 14 | `O=C(O)C(F)(F)F.[H][C@@]12COC[C@]1([H])[C@@H](OCC1CCOCC1)CN2Cc1cc(C)c(C)o1` | -2.693% | -3.487% |
| 15 | `CNC(=O)c1ccc(C2CN(C(=O)c3cnn(C)c3)CCO2)nc1` (centres undefined) | -4.316% | 15.83% |
| 16 | `COc1cccc(-c2cnnc(N(C)CCC3CCCCO3)n2)c1` (centres undefined) | 1.236% | 12.24% |
| 17 | `O=C(c1cccc2c1OCO2)N1CCCC1Cn1cccn1` (centres undefined) | -19.2% | -14.37% |
| 18 | `CCN(CC)C(=O)Cn1ccc2cc(NC(=O)C3CC3)ccc21` | -2.909% | 21.28% |
| 19 | `CCC(O)C1CCN(C(=O)Nc2nc(-c3ccccc3)ns2)CC1` (centres undefined) | 15.41% and -25.62% | -29.54% and 1.511% |
| 20 | `CC(c1ccco1)N(C(=O)c1cccc(C#N)c1)C1CC1` (centres undefined) | 2.772% | 14.73% and 10.31% |
| 21 | `Cc1cc(NC(=O)NCC(C)O)n(C)n1` (centres undefined) | -7.498% | 2.691% |
| 22 | `Cc1nnc(NC(=O)CN2CCCC2c2noc(C(C)C)n2)s1` (centres undefined) | 19.71% | 28.84% |
| 23 | `COc1ccc(Br)cc1S(=O)(=O)N(C)Cc1ccc(N(C)C)cc1` | -33.29% | -21.88% |
| 24 | `Fc1ccc(-c2nc(CNCCn3cccn3)cs2)cc1` | 33.79% | 47.05% |
| 25 | `CC(=O)N1CCCN(CCCSc2ccccc2Cl)CC1` | 15.72% | -42.57% |
| 26 | `CCOC1CC2(CCN(Cc3cccn3C)CC2)C1.O=C(O)C(F)(F)F` | -5.806% | 11.36% and -0.0935% |
| 27 | `CN(C)c1ncc(-c2ccc(C(N)=O)cc2)c(C2CNCCO2)n1` (centres undefined) | 4.257% and 9.994% | 12.38% |
| 28 | `Cc1cnn(CCNC(C)c2nnc(-c3cccc(Cl)c3)o2)c1` (centres undefined) | 3.953% and 25.38% | 12.05% and -2.191% |
| 29 | `O=C(Nc1ccc(-c2ccco2)cc1)C1CCCN(Cc2ccon2)C1` (centres undefined) | -3.137% | 18.81% |
| 30 | `CN(C)C(=O)C1CN(Cc2ccc(C#N)cc2)c2ccccc2O1` (centres undefined) | 16.85% | 6.874% and 5.496% |
| 31 | `CC(=O)c1cccc(OCC(=O)NS(=O)(=O)c2cccs2)c1` | -5.762% | -8.599% |
| 32 | `COCC1CN(C(=O)Nc2ccc(Cl)cc2Cl)CCO1` (centres undefined) | -15.37% | 5.09% |
| 33 | `COc1ccc(S(=O)(=O)NCC(c2cccn2C)N(C)C)c(C)c1` (centres undefined) | 13.39% | 14.75% |
| 34 | `CCc1c(O)n(C(C)CC)c(SCC(=O)c2ccccc2)nc1=O` (centres undefined) | -12.32% | -19.81% |
| 35 | `Brc1ccc(NCCCOC2CCOCC2)nc1` | 10.6% | 27.44% |
| 36 | `Cc1cccc(C2(NCCCS(C)(=O)=O)CCCC2)c1` | -3.327% and 0.7684% | 6.932% |
| 37 | `Cn1cc(CN2CCCN(C(=O)c3cn4ccccc4n3)CC2)cn1` | 3.159% | -13.75% |
| 38 | `CC(C)(O)CN1CCN(C(=O)c2cccc3[nH]ncc23)CC1` | 6.825% | 3.405% |
| 39 | `Cn1ccc(CN2CCC(OCCc3ccccc3)CC2)cc1=O` | -2.992% | -7.901% |
| 40 | `CN1CCOCC12CCN(c1ccc(C#N)cc1)CC2.O=C(O)C(F)(F)F` | 12.11% | 1.204% and -1.952% |
| 41 | `CCN(C)C[C@@H]1CN(Cc2cccc(Cl)c2)C[C@@H]1CO` | 5.577% | -24.12% and 2.537% |
| 42 | `CCc1nnc2n1CCN(Cc1csc(-c3ccsc3)n1)C2` | -10.86% | -3.913% and 2.815% |
| 43 | `O=C1CC(N(C(=O)c2ccc3c(c2)CCC3)C2CC2)C(=O)N1` (centres undefined) | 3.457% | -20.63% |
| 44 | `CC1(C)CCC(C(=O)N2CCCO2)c2ccccc21` (centres undefined) | 52.24% | -14.95% |
| 45 | `O=C(O)C(F)(F)F.[H][C@@]12OCCN(c3ncccn3)[C@@]1([H])CC[C@H]2OCC1CC1` | 21.44% | 47.9% |
| 46 | `CNc1ncc(CN(C)Cc2cc(O)c3cccc(Cl)c3n2)cn1` | -5.224% | -21.33% |
| 47 | `O=C(CCc1nnc(-c2ccccc2)o1)N1CCCC1c1ccc[nH]1` (centres undefined) | 1.111% | 4.54% |
| 48 | `CC(C)C(NC(=O)c1ccc(Cl)cc1Cl)C(=O)Nc1cnn(C)c1` (centres undefined) | -3.961% | -34.17% |
| 49 | `CC(C)N(C)CCNC(=O)N1CCN(Cc2ccon2)CC1` | -16.27% and -0.1331% | 1.913% |
| 50 | `CN(C)C(=O)COCC1CN(Cc2ccsc2)Cc2nccn2C1` (centres undefined) | -22.82% | -15.51% |
| 51 | `CCc1nc2n(n1)CCCC2NC(=O)Nc1cc(OC)ccc1C` (centres undefined) | -1.346% | 0.4552% |
| 52 | `CC(Cc1ccco1)NC(=O)C1=NN(c2ccccc2)C(=O)CC1` (centres undefined) | -22.11% | 14.74% |
| 53 | `CS(=O)(=O)N1CCc2nc(NC(=O)Nc3c(F)cccc3F)sc2C1` | -15.32% | -17.14% and -9.901% |
| 54 | `Cc1cnc(C(=O)N(C)Cc2nc(-c3ccccn3)no2)cn1` | -20.41% | -0.2542% and -0.2096% |
| 55 | `CC(C)OCCCN(Cc1ccncc1)Cc1cccc(F)c1.Cl` | -25.42% | -15.17% |
| 56 | `O=C(O)C(F)(F)F.O=C(O)C(F)(F)F.c1cncc(OCC2CN(Cc3ccsc3)Cc3nccn3C2)c1` (centres undefined) | -17.21% | 5.199% |
| 57 | `Cn1c(=O)[nH]c(=O)n2c(CC(=O)Nc3ccccc3)cnc12` | 0.2002% | 9.097% |
| 58 | `C[C@@H]1CN(C(=O)c2c[nH]c(=O)c(Cl)c2)CC[C@@]1(O)C1CCOCC1` | -3.839% and -12.33% | -5.032% |
| 59 | `Cc1cn2nc(N3CCCC3C(=O)N3CCOCC3)sc2n1` (centres undefined) | -15.62% | -2.339% |
| 60 | `Cc1ncc(CN(C)C2CCCN(CCc3ccccc3)C2)n1C` (centres undefined) | -4.581% and -2.13% | 1.264% |
| 61 | `O=C(NCCc1csc(-c2ncccn2)n1)c1cnn2c1CCCC2` | 4.517% | 13.13% |
| 62 | `Cc1sc(NC(=O)CN(C)S(C)(=O)=O)c(C#N)c1C` | -10.25% | 2.144% |
| 63 | `CN(Cc1ccc(-n2cncn2)cc1)Cc1ncc[nH]1` | 11.57% | -1.439% |
| 64 | `CC(C)CC(O)C1CCN(Cc2ccc(N(C)C)nc2)CC1` (centres undefined) | -33.94% | 9.876% |
| 65 | `FC(F)(F)c1c[nH]c(C2CCN(c3ncccn3)CC2)n1` | 13.89% | 25.31% |
| 66 | `Cc1ccoc1C(=O)NCc1ccnc(OCC(F)(F)F)c1` | 21.6% | 12.05% |
| 67 | `CC(=O)N1CC(=O)N(c2cnn(C)c2)CC12CCN(Cc1ccoc1)C2` (centres undefined) | 6.178% and -3.446% | 31% |
| 68 | `Cn1c(Cn2ccnc2)nnc1C1CCN(C(=O)c2cccnc2)CC1` | -5.896% | -0.08119% |
| 69 | `[H][C@@]12CC[C@@](O)(c3ccc(C)cn3)[C@]1([H])CN(Cc1ccncc1)C2` | -35.53% | -37.93% |
| 70 | `CC(Nc1ccc2c(c1)CCC2)c1nc(C2CC2)no1` (centres undefined) | 57.35% | 40.23% |
| 71 | `CNc1nc2c(s1)C(c1ccccc1Cl)CC(=O)N2` (centres undefined) | -12.56% | 23.54% |
| 72 | `Cc1nc(N)nc(C)c1CC(=O)N1CCCCC1c1cccc(F)c1` (centres undefined) | 11.82% | -15.81% and 7.037% |
| 73 | `CC(C)C(NC(=O)C1CCCC1)c1cc(O)nc(-c2cccnc2)n1` (centres undefined) | -22.84% and -31.09% | -19.45% |
| 74 | `Cc1cccc(CC(=O)Nc2cccnc2N2CCC(CO)CC2)c1` | -12.01% | -10.33% and -0.3987% |
| 75 | `CCc1nn(-c2cc(Oc3cc(C)ccc3C)ncn2)c(N)c1C#N` | 3.717% | 1.227% and 1.852% |

Some entries from above, unchanged:

| compound | Mtb cholesterol medium | Mtb glucose medium |
|---|---|---|
| `CCN(CC)C(=O)Cn1ccc2cc(NC(=O)C3CC3)ccc21` | -2.909% | 21.28% |
| `Cc1cc(C)c(CNC(=O)N2CCOC(c3ccccc3)C2)c(=O)[nH]1` (centres undefined) | 2.662% | 18.05% |
| `CCC(O)C1CCN(C(=O)Nc2nc(-c3ccccc3)ns2)CC1` (centres undefined) | 15.41% and -25.62% | -29.54% and 1.511% |
| `Cc1cnn(CCNC(C)c2nnc(-c3cccc(Cl)c3)o2)c1` (centres undefined) | 3.953% and 25.38% | 12.05% and -2.191% |
| `Cc1ccoc1C(=O)NCc1ccnc(OCC(F)(F)F)c1` | 21.6% | 12.05% |
| `O=C(NCCc1csc(-c2ncccn2)n1)c1cnn2c1CCCC2` | 4.517% | 13.13% |
| `Cn1c(=O)[nH]c(=O)n2c(CC(=O)Nc3ccccc3)cnc12` | 0.2002% | 9.097% |
| `Cc1cccc(C2(NCCCS(C)(=O)=O)CCCC2)c1` | -3.327% and 0.7684% | 6.932% |
| `CN(C)C(=O)C1CN(Cc2ccc(C#N)cc2)c2ccccc2O1` (centres undefined) | 16.85% | 6.874% and 5.496% |

Measurements from “University of Dundee, Small-Polar-MMV Screening Library” (2021), ChEMBL document CHEMBL3988442.